The other results are listed elsewhere or left out.
Experiments:
Assay in all cases: log2 fold change, soluble protein after heating vs DMSO (PISA); higher = thermal stabilisation; K562 lysate, 10 uM; active = over 0.2 and 3.5 SD of the protein, either way, in both replicates (recomputed)
crizotinib = compound: C[C@@H](Oc1cc(-c2cnn(C3CCNCC3)c2)cnc1N)c1c(Cl)ccc(F)c1Cl [crizotinib]
How it was run: (§1)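 Following dounce homogenisation of K562 pellets in PBS pH 7.4 with 1 mM MgCl2, crude extract at 1 mg/mL protein was incubated for 30 min with 10 μM compound. Aliquots were then heated for 3 min over 48°C-58°C and pooled, NP-40 was added to 0.5% at 4°C, and soluble protein was recovered as the supernatant at 21,000xg for 90 min. Channel-sum-equalised TMTpro 16plex LC-MS/MS quantified this protein. Each value, from duplicates, is a log-two fold change in thermal stability relative to solvent controls.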

Sequences of proteins named here, by UniProt entry; tags and fusion partners are left off. A change or cut given only in a name is not applied to a line headed by its entry.
UniProt Q9NTN3, whole entry, looked up: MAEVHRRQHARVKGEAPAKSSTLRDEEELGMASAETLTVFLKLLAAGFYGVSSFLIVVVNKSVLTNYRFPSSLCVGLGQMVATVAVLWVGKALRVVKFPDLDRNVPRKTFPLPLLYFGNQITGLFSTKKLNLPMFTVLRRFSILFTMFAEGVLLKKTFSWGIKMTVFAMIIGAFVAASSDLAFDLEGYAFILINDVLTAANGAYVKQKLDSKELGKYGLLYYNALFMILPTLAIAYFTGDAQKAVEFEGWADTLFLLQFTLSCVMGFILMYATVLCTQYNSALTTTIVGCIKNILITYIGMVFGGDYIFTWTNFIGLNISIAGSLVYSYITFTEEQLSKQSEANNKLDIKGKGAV
UniProt P0CK96: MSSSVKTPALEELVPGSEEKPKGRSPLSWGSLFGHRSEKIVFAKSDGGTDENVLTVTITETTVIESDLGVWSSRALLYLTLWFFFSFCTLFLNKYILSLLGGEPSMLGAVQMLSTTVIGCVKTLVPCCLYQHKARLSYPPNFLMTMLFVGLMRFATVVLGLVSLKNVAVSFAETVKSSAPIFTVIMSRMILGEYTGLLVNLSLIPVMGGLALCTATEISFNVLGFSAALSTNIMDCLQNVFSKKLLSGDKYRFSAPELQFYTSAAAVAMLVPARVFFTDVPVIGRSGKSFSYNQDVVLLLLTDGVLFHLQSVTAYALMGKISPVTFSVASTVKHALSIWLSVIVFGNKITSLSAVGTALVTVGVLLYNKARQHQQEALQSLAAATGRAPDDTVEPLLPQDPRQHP
UniProt Q8NBI5: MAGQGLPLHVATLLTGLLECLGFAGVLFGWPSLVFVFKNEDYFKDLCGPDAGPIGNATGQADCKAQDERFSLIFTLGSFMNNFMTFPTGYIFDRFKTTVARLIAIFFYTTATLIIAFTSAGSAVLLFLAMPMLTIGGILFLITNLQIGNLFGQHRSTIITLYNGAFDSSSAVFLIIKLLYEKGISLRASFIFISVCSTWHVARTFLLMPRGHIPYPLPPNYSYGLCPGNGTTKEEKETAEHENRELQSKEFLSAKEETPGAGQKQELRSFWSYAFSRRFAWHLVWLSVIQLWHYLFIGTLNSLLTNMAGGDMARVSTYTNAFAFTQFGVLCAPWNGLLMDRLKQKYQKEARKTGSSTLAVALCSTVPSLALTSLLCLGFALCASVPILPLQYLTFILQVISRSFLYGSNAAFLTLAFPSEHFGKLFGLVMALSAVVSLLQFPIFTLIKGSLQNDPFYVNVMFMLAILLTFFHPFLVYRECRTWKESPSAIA
UniProt Q96NT5: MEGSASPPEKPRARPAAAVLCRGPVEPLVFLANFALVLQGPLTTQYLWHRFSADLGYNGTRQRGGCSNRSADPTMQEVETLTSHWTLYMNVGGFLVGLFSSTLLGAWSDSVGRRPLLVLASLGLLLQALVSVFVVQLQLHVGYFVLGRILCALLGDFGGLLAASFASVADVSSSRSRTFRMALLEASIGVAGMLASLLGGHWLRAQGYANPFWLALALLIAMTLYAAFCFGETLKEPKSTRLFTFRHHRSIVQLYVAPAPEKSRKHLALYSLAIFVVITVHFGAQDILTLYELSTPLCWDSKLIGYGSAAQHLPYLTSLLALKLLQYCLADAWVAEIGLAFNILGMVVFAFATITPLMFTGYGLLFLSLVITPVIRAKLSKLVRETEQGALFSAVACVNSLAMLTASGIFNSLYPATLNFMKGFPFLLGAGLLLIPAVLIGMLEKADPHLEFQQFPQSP
UniProt Q9Y2D2: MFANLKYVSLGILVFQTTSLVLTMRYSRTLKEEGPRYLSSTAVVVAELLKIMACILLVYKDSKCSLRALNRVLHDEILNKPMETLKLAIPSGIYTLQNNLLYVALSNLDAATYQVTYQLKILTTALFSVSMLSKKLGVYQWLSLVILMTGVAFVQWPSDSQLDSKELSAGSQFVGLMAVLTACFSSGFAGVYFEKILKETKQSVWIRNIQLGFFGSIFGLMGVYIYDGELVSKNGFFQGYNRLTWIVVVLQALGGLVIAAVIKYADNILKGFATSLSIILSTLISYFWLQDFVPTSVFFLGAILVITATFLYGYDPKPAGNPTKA

doramapimod = compound: Cc1ccc(-n2nc(C(C)(C)C)cc2NC(=O)Nc2ccc(OCCN3CCOCC3)c3ccccc23)cc1 [doramapimod]
How it was run: as §1

tozasertib = compound: Cc1cc(Nc2cc(N3CCN(C)CC3)nc(Sc3ccc(NC(=O)C4CC4)cc3)n2)n[nH]1 [tozasertib]
How it was run: as §1

lapatinib = compound: CS(=O)(=O)CCNCc1ccc(-c2ccc3ncnc(Nc4ccc(OCc5cccc(F)c5)c(Cl)c4)c3c2)o1 [lapatinib]
How it was run: as §1

pictilisib = compound: CS(=O)(=O)N1CCN(Cc2cc3nc(-c4cccc5[nH]ncc45)nc(N4CCOCC4)c3s2)CC1 [pictilisib]
How it was run: as §1

bafetinib = compound: Cc1ccc(NC(=O)c2ccc(CN3CC[C@H](N(C)C)C3)c(C(F)(F)F)c2)cc1Nc1nccc(-c2cncnc2)n1 [bafetinib]
How it was run: as §1

[1] = compound: C[C@H](C1=CC=C(C=C1)C(=O)NC2=C3C=CNC3=NC=C2)N
How it was run: as §1

duvelisib = compound: C[C@H](Nc1ncnc2nc[nH]c12)c1cc2cccc(Cl)c2c(=O)n1-c1ccccc1 [duvelisib]
How it was run: as §1

gandotinib = compound: Cc1cc(Nc2cc(CN3CCOCC3)c3nc(C)c(Cc4ccc(Cl)cc4F)n3n2)n[nH]1 [gandotinib]
How it was run: as §1

[2] = compound: Cc1cccc(CC(=O)N2CCc3c2ccc(-c2cn(C)c4ncnc(N)c24)c3F)n1
How it was run: as §1

Target: SLC35D1 (UniProt Q9NTN3)
- log2 fold change (crizotinib): inactive: -0.073
- log2 fold change (doramapimod): inactive: -0.022

Target: SLC35E2B (UniProt P0CK96)
- log2 fold change (tozasertib): inactive: -0.006

Target: SLC43A3 (UniProt Q8NBI5)
- log2 fold change (lapatinib): inactive: 0.169
- log2 fold change (pictilisib): inactive: -0.337
- log2 fold change (bafetinib): inactive: -0.023

Target: SLC46A1 (UniProt Q96NT5)
- log2 fold change (lapatinib): inactive: 0.074
- log2 fold change [1]: inactive: -0.032
- log2 fold change (duvelisib): inactive: -0.015
- log2 fold change (gandotinib): inactive: 0.013
- log2 fold change [2]: inactive: 0.007

Target: SLC35A3 isoform 2 (UniProt Q9Y2D2)
- log2 fold change (lapatinib): inactive: -0.097
- log2 fold change (crizotinib): inactive: -0.267
- log2 fold change [1]: active: -1.02
- log2 fold change (gandotinib): inactive: 0.215
- log2 fold change (tozasertib): inactive: 0.032
- log2 fold change (doramapimod): inactive: 0.095
- log2 fold change [2]: inactive: 0.332

From the supplement of paper PMC10849652
